Measured values reported in paper PMC10881398, “O-glycosylation of the transcription factor SPATULA promotes style development in Arabidopsis” (Nature Plants, 2024).
These are yes or no findings as the source states them, for the method shown. For some of these results: Binding can be weak; no strength is given. Tags and fused reporters may be left off the sequences shown.

Columns and labels:
Assay in all cases: two-hybrid; yeast AH109; SEC and SPY as bait (BD), SPT as prey (AD); growth on SD/−Ade/−His/−Leu/−Trp and with 2.5 mM 3-AT, serial dilutions, five days at 28 °C
[1] = target: SPY N-terminal tetratricopeptide repeats (TPRs 1–11), yeast two-hybrid bait (BD) (Arabidopsis thaliana)
[2] = target: SEC N-terminal tetratricopeptide repeats (TPRs 1–13), yeast two-hybrid bait (BD) (Arabidopsis thaliana)
[3] = target: SPY carboxy-terminal catalytic domain, yeast two-hybrid bait (BD) (Arabidopsis thaliana)
[4] = target: SEC carboxy-terminal catalytic domain, yeast two-hybrid bait (BD) (Arabidopsis thaliana)

binding [1]: binds | binding [2]: binds | binding [3]: no binding | binding [4]: no binding
B1: SPT–GFP (35S::SPT::GFP) (natural protein, Arabidopsis thaliana, UniProt Q9FUA4 1-373, looked up)
chain: MISQREEREEKKQRVMGDKKLISSSSSSSVYDTRINHHLHHPPSSSDEISQFLRHIFDRSSPLPSYYSPATTTTTASLIGVHGSGDPHADNSRSLVSHHPPSDSVLMSKRVGDFSEVLIGGGSGSAAACFGFSGGGNNNNVQGNSSGTRVSSSSVGASGNETDEYDCESEEGGEAVVDEAPSSKSGPSSRSSSKRCRAAEVHNLSEKRRRSRINEKMKALQSLIPNSNKTDKASMLDEAIEYLKQLQLQVQMLTMRNGINLHPLCLPGTTLHPLQLSQIRPPEATNDPLLNHTNQFASTSNAPEMINTVASSYALEPSIRSHFGPFPLLTSPVEMSREGGLTHPRLNIGHSNANITGEQALFDGQPDLKDRIT
notes: SPATULA (SPT), Arabidopsis thaliana; in the self-association row the second copy carried RFP in place of EGFP (35S::SPT–RFP); also called SPT–EGFP; SPT–RFP (the second copy in the homodimer test); source: N. benthamiana leaves, Agrobacterium-infiltrated, in nuclei of leaf cells
